Reference: US20090317419A1, “Tetramers” (Duke University, priority 2008, published 2009)
Not every detail of the peptide structures is certain; ends, links or a residue may be inferred. Ends that are not written are not given here.

How the values were obtained:
mAb F39F = test: ELISA peptide mapping of anti-gp120 V3 mAbs: F39F; type: binding, human; settings: F39F at 1 μg/mL
mAb 7B9 = test: ELISA peptide mapping of anti-gp120 V3 mAbs: 7B9; type: binding, mouse; settings: 7B9 at 0.063 μg/mL
mAb A32 = test: ELISA peptide mapping: control mAb A32; type: binding; settings: A32 at 1 μg/mL
P3X63/Ag8 = test: ELISA peptide mapping: control P3X63/Ag8; type: binding, mouse; settings: P3X63/Ag8 at 0.063 μg/mL

RPNNNTRKSIHIGPGRAFYATE
OD @ 405 nm (mAb F39F): 0.956 | OD @ 405 nm (mAb 7B9): 0.350 | OD @ 405 nm (mAb A32): 0.068 | OD @ 405 nm (P3X63/Ag8): 0.065

RPNNNTRKSINIGPGRAFYTTG
OD @ 405 nm (mAb F39F): 0.872 | OD @ 405 nm (mAb 7B9): 0.087 | OD @ 405 nm (mAb A32): 0.081 | OD @ 405 nm (P3X63/Ag8): 0.085

RPNNNTRKSIQIGPGRAFYTTG
OD @ 405 nm (mAb F39F): 0.491 | OD @ 405 nm (mAb 7B9): 0.071 | OD @ 405 nm (mAb A32): 0.087 | OD @ 405 nm (P3X63/Ag8): 0.074

RPSNNTRKGIHLGPGRAIYATE
OD @ 405 nm (mAb F39F): 0.131 | OD @ 405 nm (mAb 7B9): 0.474 | OD @ 405 nm (mAb A32): 0.139 | OD @ 405 nm (P3X63/Ag8): 0.121
